{
  "source": "patent US11925653B2",
  "about": "“Combination therapy effective against microorganisms, including drug resistant microorganisms” (Fleurir ABX LLC, priority 2021, dated 2024)",
  "assay": "representative pharmacokinetic parameters",
  "conditions": "in vivo",
  "from_the_text": "In many embodiments, the novel composition will be provided at a therapeutically effective amount, which refers to that amount of the novel composition on its whole which, when administered to a subject in need thereof, is sufficient to effect treatment of a symptom, a condition, or a disease of interest in the subject or as presented by the subject. The amount of an antibiotic composition of the invention which constitutes a “therapeutically effective amount” will vary depending on the antibiotic composition, the disease or condition, and its severity, and the age of the mammal to be treated, but can be determined routinely by one of ordinary skill in the art having regard to their own knowledge, and to this disclosure. The therapeutically effective amount may be modified by pharmacokinetic, and pharmacodynamic analysis as is understood in the field. In some embodiments, the novel composition may be provided prophylactically or preventatively or protectively, which may, in some instances, be at or below a therapeutically effective amount.",
  "data": [
    {"smiles": "Cc1cc(NS(=O)(=O)c2ccc(N)cc2)no1", "note": "[sulfamethoxazole, N1-(5-methyl-3-isoxazolyl)sulfanilamide]", "values": [
      {"measurement": "Tmax", "result": 4, "unit": "h"}
    ]}
  ]
}
